Test results as given in publication PMC8225388.
These are yes or no findings as the source states them, for the method shown. Binding seen in cells or lysates may run through a third protein. Some entries that bind do so weakly or less than the wild type.

Sequences of proteins named here, by UniProt entry; tags and fusion partners are left off. Residues count along the entry.
UniProt Q8TDQ0, residues 22-301: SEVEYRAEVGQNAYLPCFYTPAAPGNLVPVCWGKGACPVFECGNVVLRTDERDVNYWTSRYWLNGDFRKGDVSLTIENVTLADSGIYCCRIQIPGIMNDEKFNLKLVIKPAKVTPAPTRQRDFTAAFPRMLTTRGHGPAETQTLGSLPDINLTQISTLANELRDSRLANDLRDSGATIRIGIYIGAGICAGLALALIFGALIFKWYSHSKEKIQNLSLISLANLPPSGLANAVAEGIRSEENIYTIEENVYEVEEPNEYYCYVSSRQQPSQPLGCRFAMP
UniProt Q12906, residues 5-378: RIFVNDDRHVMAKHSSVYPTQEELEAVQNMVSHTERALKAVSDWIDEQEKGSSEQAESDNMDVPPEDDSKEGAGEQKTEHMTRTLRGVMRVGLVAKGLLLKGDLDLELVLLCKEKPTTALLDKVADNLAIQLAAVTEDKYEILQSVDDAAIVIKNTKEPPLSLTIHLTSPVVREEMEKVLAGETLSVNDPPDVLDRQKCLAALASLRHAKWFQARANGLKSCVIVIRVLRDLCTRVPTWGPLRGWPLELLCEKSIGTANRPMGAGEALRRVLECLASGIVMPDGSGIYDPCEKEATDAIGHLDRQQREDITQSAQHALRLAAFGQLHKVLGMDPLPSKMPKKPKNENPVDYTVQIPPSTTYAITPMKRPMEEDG
UniProt Q96LD4: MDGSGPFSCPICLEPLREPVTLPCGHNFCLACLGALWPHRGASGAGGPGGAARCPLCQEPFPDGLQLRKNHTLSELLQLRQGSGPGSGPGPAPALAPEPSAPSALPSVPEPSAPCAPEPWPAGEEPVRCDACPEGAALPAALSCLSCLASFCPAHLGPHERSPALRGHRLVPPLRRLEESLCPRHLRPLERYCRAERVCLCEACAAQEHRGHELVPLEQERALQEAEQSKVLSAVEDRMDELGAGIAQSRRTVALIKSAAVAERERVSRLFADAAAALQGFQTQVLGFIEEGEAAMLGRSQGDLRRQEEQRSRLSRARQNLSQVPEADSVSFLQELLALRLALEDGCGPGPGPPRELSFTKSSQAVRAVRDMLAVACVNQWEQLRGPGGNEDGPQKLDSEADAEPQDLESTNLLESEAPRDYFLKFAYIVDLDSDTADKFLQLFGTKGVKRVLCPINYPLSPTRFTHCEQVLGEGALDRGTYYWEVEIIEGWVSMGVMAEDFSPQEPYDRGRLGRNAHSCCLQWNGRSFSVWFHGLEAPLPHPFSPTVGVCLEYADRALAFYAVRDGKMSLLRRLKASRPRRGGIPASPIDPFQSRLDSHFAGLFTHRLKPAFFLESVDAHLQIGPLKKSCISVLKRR

Experiments:
[1] = biological target: Tim-3 (wild-type construct of Figure 5A) (human) (UniProt Q8TDQ0); test: co-IP; HEK293T co-transfected for 24 hr; lysis in 1% NP-40, 20 mM Tris-HCl, 150 mM NaCl, 5 mM EDTA, 0.25% deoxycholate, pH 7.5; Protein A/G beads with tag or Tim-3 antibody overnight at 4°C; washes with 500 mM and 150 mM NaCl buffers; western blot; for Figure 5A,B cells treated with MG132 (20 ug/ml) for 6 hr
[2] = biological target: Flag-NF90-DZF (UniProt Q12906); test: as above

In the case of “V5-TRIM47 (from UniProt Q96LD4 1-638) (enzyme)”, the binding [1] was “binds” and the binding [2] was “binds”.
